Laboratory results taken from patent US20210329924A1, “METAL-BASED ANTIMICROBIAL COMPOSITION AND METHOD OF USING” (Microbonds Inc., priority 2020, published 2021).

How the values were obtained:
[1] = Stain test (colour change of treated substrate, Delta E criteria); conditions: white cotton fabric, 1 hr
[2] = Wash test (metal remains adhered to substrate after multiple washes); conditions: white cotton fabric, 1 hr

[Ag(NH3)2]-carbonate [Example 1]
Stain test Pass? ([1]; 10 ppm silver metal loading): Yes
Stain test Pass? ([1]; 20 ppm silver metal loading): Yes
Stain test Pass? ([1]; 100 ppm silver metal loading): Yes
Stain test Pass? ([1]; 500 ppm silver metal loading): Yes
Stain test Pass? ([1]; 1000 ppm silver metal loading): Yes
Stain test Pass? ([1]; 3000 ppm silver metal loading): No
Wash test Pass? ([2]; 10 ppm silver metal loading): Yes
Wash test Pass? ([2]; 20 ppm silver metal loading): Yes
Wash test Pass? ([2]; 100 ppm silver metal loading): Yes
Wash test Pass? ([2]; 500 ppm silver metal loading): Yes
Wash test Pass? ([2]; 1000 ppm silver metal loading): Yes
Wash test Pass? ([2]; 3000 ppm silver metal loading): Yes
